Results published in publication PMC4834642 (Nature Communications, 2016).

Assay: general procedure: Fmoc solid-phase peptide synthesis; Tentagel rink amide resin; HCTU and COMU
Settings: whole synthesis; for final HPLC purity: 210 nm; for isolated yield: Fmoc quantification after 1st amino acid

## D D E K E Q F L Y H L L S F N A V
b133 entry 1a
  final HPLC purity: 84%
  isolated yield: 43%
b133 entry 1b
  final HPLC purity: >99%
  isolated yield: 70%

## D D E 2 E Q F 2 Y H L L S F N A V
Run 1
  final HPLC purity: 98%
  isolated yield: 16%
Run 2
  final HPLC purity: 96%
  isolated yield: 15%

## D D E 1 E Q F 2 Y H L L S F N A V
Run 1
  final HPLC purity: 95%
  isolated yield: 12%
Run 2
  final HPLC purity: 88%
  isolated yield: 13%

## D D E 2 E Q F 1 Y H L L S F N A V
  final HPLC purity: 97%
Run 1
  isolated yield: 23%
Run 2
  isolated yield: 21%

## D D E 6 E Q F 6 Y H L L S F N A V
b133 entry 2a
  final HPLC purity: >99%
  isolated yield: 60%
b133 entry 2b
  final HPLC purity: 98%
  isolated yield: 65%
